Measured data: PubChem BioAssay AID504808 (Drosophila RNAi Screening Center, 2011)

- Purpose: 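Genes whose loss lifts activity of an E2F-responsive reporter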 (primary screen)
- Cells: Drosophila S2 cells
- Knock-down reagent: long dsRNA against Drosophila genes
- Read-out: 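Firefly luciferase driven by E2F sites, normalised to Renilla luciferase on the same minimal promoter, measured by plate reader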
- Scale: E2F firefly: higher = more E2F reporter activity; Renilla normaliser: higher = more normaliser reporter signal
- Rule for the call: 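Called active if the normalised E2F reporter went up by over 50%; the cutoff is arbitrary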
The deposit covers about 21,000 reagents; below is a random part of those that have a named target and a result. Over the whole deposit, 18 (0.084%) got an active call. 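Raw counts without plate normalisation, one of two replicates; the ratio scores behind the calls were not deposited.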 Not stated in the record: the amount of reagent, the time to read-out.

Target gene	dsRNA	E2F firefly, rep 1	Renilla normaliser, rep 1	call
atl (atlastin)	DRSC16089	65317	3928	inactive
CG13690	DRSC00359	1.74e5	5830	inactive
CG2211	DRSC08559	1.01e5	3785	inactive
fand (fandango)	DRSC06967	2162	232	inactive
CG30427	DRSC04014	1.32e5	6477	inactive
CG30427	DRSC04311	84920	3511	inactive
CG30427	DRSC04323	97971	3615	inactive
Cds (CDP-diacylglycerol synthase)	DRSC10938	70261	3792	inactive
CG15036	DRSC17968	1.21e5	5483	inactive
CG4627	DRSC06873	1.03e5	4108	inactive
Hmg-2 (High mobility group protein 2)	DRSC04554	78448	3709	inactive
GC1	DRSC15322	1.30e5	5599	inactive
ras (raspberry)	DRSC18825	7832	788	inactive
Gbp2 (Growth-blocking peptide 2)	DRSC06069	79777	3302	inactive
CG10681	DRSC09777	71355	3801	inactive
CG14015	DRSC02346	1.58e5	4716	inactive
Cyp12a4 (Cytochrome P450 12a4)	DRSC16620	1.41e5	7954	inactive
boil (boilerman)	DRSC17872	1.06e5	5408	inactive
Xpc (Xeroderma pigmentosum, complementation group C)	DRSC07654	75027	3285	inactive
CG42579	DRSC20391	81093	2595	inactive
CG15548	DRSC15086	1.43e5	7075	inactive
RpL37-1 (Ribosomal protein L37-1)	DRSC20149	1.53e5	6279	inactive
CG9391	DRSC11858	1.13e5	5654	inactive
CG8750	DRSC11037	1.28e5	6242	inactive
Drgx (Dorsal root ganglia homeobox)	DRSC00278	1.40e5	4771	inactive
Drgx (Dorsal root ganglia homeobox)	DRSC00537	1.48e5	5200	inactive
bocks (bocksbeutel)	DRSC16489	66263	2941	inactive
Nlg3 (Neuroligin 3)	DRSC12477	52243	3928	inactive
Nlg3 (Neuroligin 3)	DRSC12524	1.21e5	5034	inactive
Nlg3 (Neuroligin 3)	DRSC12540	1.27e5	6200	inactive
Nlg3 (Neuroligin 3)	DRSC12574	1.25e5	6531	inactive
CG13248	DRSC11696	1.52e5	7733	inactive
Pde6 (Phosphodiesterase 6)	DRSC16401	74020	3387	inactive
Pde6 (Phosphodiesterase 6)	DRSC16402	1.17e5	5757	inactive
Pde6 (Phosphodiesterase 6)	DRSC16403	1.27e5	5350	inactive

Part of the list above in another layout.
{"Target gene":"CG10681","dsRNA":"DRSC09777","E2F firefly, rep 1":71355,"Renilla normaliser, rep 1":3801,"call":"inactive"}
{"Target gene":"CG14015","dsRNA":"DRSC02346","E2F firefly, rep 1":1.58e5,"Renilla normaliser, rep 1":4716,"call":"inactive"}
{"Target gene":"Cyp12a4 (Cytochrome P450 12a4)","dsRNA":"DRSC16620","E2F firefly, rep 1":1.41e5,"Renilla normaliser, rep 1":7954,"call":"inactive"}
{"Target gene":"boil (boilerman)","dsRNA":"DRSC17872","E2F firefly, rep 1":1.06e5,"Renilla normaliser, rep 1":5408,"call":"inactive"}
